# Measurements: article PMC7862700
# Protein sequences, listed by entry. Tags and fused reporters are not part of them. Lines headed by an entry give the natural chain unless they say otherwise; changes in a name come on top.
# UniProt Q01892: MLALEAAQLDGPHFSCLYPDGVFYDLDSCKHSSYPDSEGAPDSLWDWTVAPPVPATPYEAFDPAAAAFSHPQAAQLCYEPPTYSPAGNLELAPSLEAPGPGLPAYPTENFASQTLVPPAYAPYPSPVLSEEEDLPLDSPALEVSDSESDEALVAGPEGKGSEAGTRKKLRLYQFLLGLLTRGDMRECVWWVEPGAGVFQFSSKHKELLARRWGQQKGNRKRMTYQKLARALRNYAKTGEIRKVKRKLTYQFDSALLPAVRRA
# UniProt Q99607: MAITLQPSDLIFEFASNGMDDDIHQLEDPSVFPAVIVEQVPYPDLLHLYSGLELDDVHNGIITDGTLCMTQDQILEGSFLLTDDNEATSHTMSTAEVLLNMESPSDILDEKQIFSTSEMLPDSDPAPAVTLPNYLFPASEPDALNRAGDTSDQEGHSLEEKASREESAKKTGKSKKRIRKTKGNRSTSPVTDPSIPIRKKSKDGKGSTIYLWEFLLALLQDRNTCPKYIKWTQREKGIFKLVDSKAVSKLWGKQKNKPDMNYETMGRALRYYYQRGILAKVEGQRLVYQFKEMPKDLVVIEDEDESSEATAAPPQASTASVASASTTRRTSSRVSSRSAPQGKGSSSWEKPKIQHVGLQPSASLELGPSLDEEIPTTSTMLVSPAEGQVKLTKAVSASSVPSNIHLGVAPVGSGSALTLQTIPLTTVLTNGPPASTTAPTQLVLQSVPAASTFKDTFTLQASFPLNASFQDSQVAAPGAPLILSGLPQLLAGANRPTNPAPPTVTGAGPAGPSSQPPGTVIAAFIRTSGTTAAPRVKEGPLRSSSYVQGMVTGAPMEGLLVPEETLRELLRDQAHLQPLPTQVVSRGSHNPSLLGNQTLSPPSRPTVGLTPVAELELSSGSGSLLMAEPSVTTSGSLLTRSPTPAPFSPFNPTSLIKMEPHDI
# Only a part is listed here, and it is no random draw. For part of these data: At the low end of the ranking, values are background and their order means little.
# How the values were obtained:
# Assay in all cases: DAPPL (digital affinity profiling via proximity ligation, sequencing)
# Settings in all cases: 10 mM Tris-HCl pH 7.5, 50 mM NaCl, 1 mM DTT, 4% glycerol, room temperature, 30 min; GST-TFs on glutathione beads, 16-mer random dsDNA library, 0.1% …; high values mean tight binding; double strand, one strand shown; scale: fold enrichment (6-mer frequency, TF over GST control)
# SPIB = SPIB (UniProt Q01892)
# ELF4 = ELF4 (UniProt Q99607)
# ETV2 = target: T1, ETV2 (UniProt O00321)
# T1 sequence: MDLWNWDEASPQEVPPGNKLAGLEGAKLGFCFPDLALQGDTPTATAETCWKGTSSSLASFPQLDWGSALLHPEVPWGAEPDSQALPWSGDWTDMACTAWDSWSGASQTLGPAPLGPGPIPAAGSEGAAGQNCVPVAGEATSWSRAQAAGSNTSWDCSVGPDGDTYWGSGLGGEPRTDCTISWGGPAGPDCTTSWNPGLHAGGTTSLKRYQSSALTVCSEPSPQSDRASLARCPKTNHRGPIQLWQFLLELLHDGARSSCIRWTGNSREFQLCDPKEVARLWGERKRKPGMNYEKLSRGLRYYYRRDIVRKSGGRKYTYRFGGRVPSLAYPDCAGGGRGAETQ
sequence,measurement,setting,value
CTCGTA,binding signal,SPIB,1.38
same,binding signal,ELF4,1.35
TCGCTT,binding signal,ETV2,1.05
CGCTAG,binding signal,SPIB,0.994
same,binding signal,ELF4,1.11
TTGCCG,binding signal,ETV2,0.936
TTCAAA,binding signal,SPIB,1.3
same,binding signal,ELF4,1.26
GATATC,binding signal,ETV2,1.51
CCAAAA,binding signal,ETV2,1.28
ATACTG,binding signal,SPIB,0.982
same,binding signal,ELF4,1.16
TTATGA,binding signal,SPIB,1.14
same,binding signal,ELF4,1.05
TTGCAT,binding signal,SPIB,1.38
same,binding signal,ELF4,1.4
CTATTC,binding signal,ETV2,1.37
AATAGA,binding signal,SPIB,1.05
same,binding signal,ELF4,1.07
GTATTA,binding signal,SPIB,1.07
same,binding signal,ELF4,1.08
TCTGCT,binding signal,ETV2,1.53
CGATAT,binding signal,ETV2,1.19
TGCTGC,binding signal,ETV2,0.942
CTTCGC,binding signal,ETV2,1.62
ATCTAC,binding signal,ETV2,1.29
GTGCTC,binding signal,ETV2,1.16

# Two records picked at random from the list so far:
sequence,measurement,setting,value
CTCGTA,binding signal,SPIB,1.38
ATACTG,binding signal,SPIB,0.982
